Experimental data taken from PMC7819943, “Rice protein-binding microarrays: a tool to detect cis-acting elements near promoter regions in rice”.
The other results are listed elsewhere or left out.

Target: T1, OsSMF1 (Oryza sativa, UniProt Q6ZLB0 1-436)
T1 sequence: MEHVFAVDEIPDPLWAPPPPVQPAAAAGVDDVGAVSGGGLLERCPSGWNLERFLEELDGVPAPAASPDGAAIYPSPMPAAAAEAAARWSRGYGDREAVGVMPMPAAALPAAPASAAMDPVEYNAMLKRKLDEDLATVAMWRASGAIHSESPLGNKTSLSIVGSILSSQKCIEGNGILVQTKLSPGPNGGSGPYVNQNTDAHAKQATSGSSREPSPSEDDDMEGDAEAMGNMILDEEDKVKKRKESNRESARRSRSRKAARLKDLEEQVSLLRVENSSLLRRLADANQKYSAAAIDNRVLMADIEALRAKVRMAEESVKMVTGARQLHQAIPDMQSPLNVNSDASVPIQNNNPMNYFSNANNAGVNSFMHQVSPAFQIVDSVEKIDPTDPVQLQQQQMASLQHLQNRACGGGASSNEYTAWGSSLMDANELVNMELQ
Test: protein-binding microarray (RPBM); PBS, 2% BSA, 51.3 ng/ul salmon testes DNA, 50 uM zinc acetate, 200 nM TF, 25 C, 1 h; high values mean tight binding
Conditions: protein: recombinant; tags: N-terminal polyhistidine and DsRed monomer fusion (pET32a); chain copies: 2; label: CyDye5-dUTP incorporated in the synthesized complementary strand; 3' TTTTT single-stranded linker to array surface; dsDNA, one strand shown
Method in brief: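 The binding signal is fluorescence intensity per feature, in arbitrary units, read on an Axon 4000B scanner. Polyhistidine- and DsRed-tagged transcription factors (N-terminal fusions) from E. coli BL21-CodonPlus were purified on Ni–NTA and applied at 200 nM for 1 h at 25 °C to a double-stranded, BSA-blocked custom Agilent array in buffer with 50 µM zinc acetate.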

Going from “AAGTGAATCACGCCCACGCGTGATCGTCTTGTCACATCTACGGAGTCACCTAGTGCAG” to “GAAGCTTCGAGACAAGATGACTCGGATTCAGCACTGACATCGGAGTCACCTAGTGCAG”, the binding signal rises from 3900 fluorescence intensity (a.u.) to 4200 fluorescence intensity (a.u.).

Compared with “CCTACTTGGGAAGTTGGGTGGGATTGGCGTCGTGTTCGTGCGGAGTCACCTAGTGCAG”, “CACGGGAGCGAGCAGAGCGGTGGGTAGCAGCCCACCTCCACGGAGTCACCTAGTGCAG” is lower in binding signal: 3950 fluorescence intensity (a.u.) for the first, 3300 fluorescence intensity (a.u.) for the second.

Compared with “AGTTTTACAAGTTGAGGAGCACGTTATAACTGATATTGTCCGGAGTCACCTAGTGCAG”, “GCACCACCTGCGCTGCTTCCGCTCCACGCCGGCGCCGCGCCGGAGTCACCTAGTGCAG” is lower in binding signal: 5510 fluorescence intensity (a.u.) for the first, 3320 fluorescence intensity (a.u.) for the second.

Going from “TGTTGTAGGATGAGGGGTGCCGCTCGGCGGTGAGGTGGAGCGGAGTCACCTAGTGCAG” to “GTCCGGATCTCCGCTCTTTGTCGAGTCGACTCCTATTCCTCGGAGTCACCTAGTGCAG”, the binding signal falls from 6250 fluorescence intensity (a.u.) to 3470 fluorescence intensity (a.u.).

First: CTTCTCTTATTGTTTGTGTCATTTTCATTTATGTCCTTGTCGGAGTCACCTAGTGCAG
Second: ATAATAATTGCTAGTGGGTGATGATGTGGTATACTTGCATCGGAGTCACCTAGTGCAG
The binding signal of the first is lower: 3940 fluorescence intensity (a.u.) for the first, 5680 fluorescence intensity (a.u.) for the second.

Going from “TTTACCCCTCTGCATCCATCCACCAACCCGATCGACGACTCGGAGTCACCTAGTGCAG” to “TGACCTGACCAAACCATGCATTGTCAGACTCAACCTCAAACGGAGTCACCTAGTGCAG”, the binding signal rises from 3290 fluorescence intensity (a.u.) to 3740 fluorescence intensity (a.u.).

First: GAAGTCAGTAAGGAACATCAAGCAAGAAAACACTGATGGTCGGAGTCACCTAGTGCAG
Second: TACTGGCCAAAGTAATCTAGATGATCTGGCAGCGCATACCCGGAGTCACCTAGTGCAG
The binding signal of the first is lower: 4750 fluorescence intensity (a.u.) for the first, 6150 fluorescence intensity (a.u.) for the second.

Compared with “AAATTAGAGGATGTTGGATATCTGTTTTAGAGGGTCTTTGCGGAGTCACCTAGTGCAG”, “TGTGATATGTTCCTGTGAGCTGTCCCTCATCTAATTACCCCGGAGTCACCTAGTGCAG” is higher in binding signal: 3180 fluorescence intensity (a.u.) for the first, 4430 fluorescence intensity (a.u.) for the second.

Going from “GCGTAGCCGCAAGAAAGCGTACGAGTCATCGCCTTACATCCGGAGTCACCTAGTGCAG” to “CTCCCGGACCTTGAAGCCATCGCAGCCAAGGCCCTGCGCCCGGAGTCACCTAGTGCAG”, the binding signal rises from 4940 fluorescence intensity (a.u.) to 35000 fluorescence intensity (a.u.).

First: AAAGCAACATCCCAGATGTTTCTAGCTGCGTATACTAGTCCGGAGTCACCTAGTGCAG
Second: CACCAGCGGCAGAGTAGCTGACCTGACCGACCAGCCATGGCGGAGTCACCTAGTGCAG
The binding signal of the first is lower: 3180 fluorescence intensity (a.u.) for the first, 3480 fluorescence intensity (a.u.) for the second.

First: AAATGGCCTTGCACACCTTGTCATTGAAATTAAGAACAAACGGAGTCACCTAGTGCAG
Second: TCATGCTAACGTCTAACCTCATCGTTATCGTCGTGTCACGCGGAGTCACCTAGTGCAG
The binding signal of the first is higher: 6400 fluorescence intensity (a.u.) for the first, 5780 fluorescence intensity (a.u.) for the second.

Compared with “CAATCCCACCACGCCTACCCTAAACCCACGGCGATCTCCTCGGAGTCACCTAGTGCAG”, “GCTTTAGTCTACGTGACATACGCGTGGCAGTCCAGTCAGCCGGAGTCACCTAGTGCAG” is higher in binding signal: 3320 fluorescence intensity (a.u.) for the first, 14500 fluorescence intensity (a.u.) for the second.

First: GGACATAAATATACCACTGATATAAGCATCAAATAATTTGCGGAGTCACCTAGTGCAG
Second: GTTGGAATCCCCTACGAAATCCGGCCGCCGCCTCTGACCTCGGAGTCACCTAGTGCAG
The binding signal of the first is higher: 3930 fluorescence intensity (a.u.) for the first, 3320 fluorescence intensity (a.u.) for the second.

First: GGGTGGTGGGCCCCGCCGCCATAGTAATCGCTCGAGCTCGCGGAGTCACCTAGTGCAG
Second: CCCTTCAGCACGTGGCTGATGCCCTTGCCGCTGCCCAGCCCGGAGTCACCTAGTGCAG
The binding signal of the first is higher: 4650 fluorescence intensity (a.u.) for the first, 3620 fluorescence intensity (a.u.) for the second.

First: CATTTCAACCACCAGTGCCAAATTCACAGCTTAGTTTAAACGGAGTCACCTAGTGCAG
Second: CCATCTGCGGCGTACTTGCCACTTTTCTTCGATCGGCACCCGGAGTCACCTAGTGCAG
The binding signal of the first is higher: 5840 fluorescence intensity (a.u.) for the first, 3550 fluorescence intensity (a.u.) for the second.

Going from “GGTCGACCCACCGTCTGCCACGTCAGCTTGCTGCCCACCACGGAGTCACCTAGTGCAG” to “TCTTTGTCTCCAACTCCCTCGTCTCCTTGTACGCCAAGTTCGGAGTCACCTAGTGCAG”, the binding signal falls from 48400 fluorescence intensity (a.u.) to 3730 fluorescence intensity (a.u.).

Compared with “ACCGAAACTGCTTGCATCACCGCTGATATCATCGCCTCCACGGAGTCACCTAGTGCAG”, “GTTATCCAATTGGTTGCAGGTGATGGGTGAACATGTTCTACGGAGTCACCTAGTGCAG” is lower in binding signal: 5920 fluorescence intensity (a.u.) for the first, 3200 fluorescence intensity (a.u.) for the second.

Going from “CTTCTTCTTATCCTACAGCATGTGACGTCAATTTATCATCCGGAGTCACCTAGTGCAG” to “ATAATGCATTTAGTATTGCCACCCTGTACTAATAGATGTTCGGAGTCACCTAGTGCAG”, the binding signal falls from 6060 fluorescence intensity (a.u.) to 3810 fluorescence intensity (a.u.).

First: TGTTACAAAACCAAGTCACTCTAGATAGTTTTGACCGGTTCGGAGTCACCTAGTGCAG
Second: ATGGTAAACGTTACTTGTTGCGGACAACGTGACTGGCTTCCGGAGTCACCTAGTGCAG
The binding signal of the first is lower: 3650 fluorescence intensity (a.u.) for the first, 4800 fluorescence intensity (a.u.) for the second.

Going from “CCGTTTCACCTCGTGCTTCCGGGCGTGGCGTCGTGTACCCCGGAGTCACCTAGTGCAG” to “GTCGCCATGCGTGGCCAGAGATTTCCAAACGTAGTTGAATCGGAGTCACCTAGTGCAG”, the binding signal falls from 3780 fluorescence intensity (a.u.) to 3260 fluorescence intensity (a.u.).

First: TGGGTCCCACATGAGTCCCACGCTGACTCAGCCGCCACGTCGGAGTCACCTAGTGCAG
Second: AAACCCCTACCATGACACATGGCACATCCAAAGATTAAAACGGAGTCACCTAGTGCAG
The binding signal of the first is higher: 17800 fluorescence intensity (a.u.) for the first, 4070 fluorescence intensity (a.u.) for the second.

Compared with “AGTTCTTCACCGCCGGCGGCGTCATCGTGCTGCTCGACCTCGGAGTCACCTAGTGCAG”, “TCCTCCCTCTCCCTCTTCTGACTCGGATTCGCCGCAGCCGCGGAGTCACCTAGTGCAG” is higher in binding signal: 4860 fluorescence intensity (a.u.) for the first, 6080 fluorescence intensity (a.u.) for the second.

Compared with “AAATTATAAATGCCACTGTCATATATATTTCTCGATAATGCGGAGTCACCTAGTGCAG”, “ACTTCTAAAACTCAGTATGCAAGTGTACAACATCGTCATCCGGAGTCACCTAGTGCAG” is higher in binding signal: 3880 fluorescence intensity (a.u.) for the first, 4780 fluorescence intensity (a.u.) for the second.

Going from “GACGCACGAAACCGCGAGCATTTCTGATTTCTCCTCCTCTCGGAGTCACCTAGTGCAG” to “TTTTCTTCCAAGGAAGGGGCGCTACGTGGACCAATCAAAACGGAGTCACCTAGTGCAG”, the binding signal rises from 3240 fluorescence intensity (a.u.) to 3790 fluorescence intensity (a.u.).

Compared with “TCTTCCACGTACCGATAGCGCCCCGCGTCATTACTTCGTCCGGAGTCACCTAGTGCAG”, “TATCCCCATATCTCTTTGAGCGTGTGCCATGACGCACATTCGGAGTCACCTAGTGCAG” is lower in binding signal: 7540 fluorescence intensity (a.u.) for the first, 4440 fluorescence intensity (a.u.) for the second.

First: GAGAAGATGGCGGGAGAAGCGAGGAGTGGAGCAGCGGTGGCGGAGTCACCTAGTGCAG
Second: AATAGCATTCATCCATCAACTGAAGAACAAAGAGGCCATTCGGAGTCACCTAGTGCAG
The binding signal of the first is higher: 14500 fluorescence intensity (a.u.) for the first, 12400 fluorescence intensity (a.u.) for the second.

First: TCCTCCTCGTCGTCATCTCCAACTCCCTCCCGCTCCCTTCCGGAGTCACCTAGTGCAG
Second: ACACAATGTTCTAGGTTAGCTTGGTCATGACCAAGATTAGCGGAGTCACCTAGTGCAG
The binding signal of the first is higher: 5660 fluorescence intensity (a.u.) for the first, 4880 fluorescence intensity (a.u.) for the second.
